We go through one molecule from patent US20160130303A1.

Sequences of proteins named here, by UniProt entry; tags and fusion partners are left off. A change or cut given only in a name is not applied to a line headed by its entry.
UniProt P49841: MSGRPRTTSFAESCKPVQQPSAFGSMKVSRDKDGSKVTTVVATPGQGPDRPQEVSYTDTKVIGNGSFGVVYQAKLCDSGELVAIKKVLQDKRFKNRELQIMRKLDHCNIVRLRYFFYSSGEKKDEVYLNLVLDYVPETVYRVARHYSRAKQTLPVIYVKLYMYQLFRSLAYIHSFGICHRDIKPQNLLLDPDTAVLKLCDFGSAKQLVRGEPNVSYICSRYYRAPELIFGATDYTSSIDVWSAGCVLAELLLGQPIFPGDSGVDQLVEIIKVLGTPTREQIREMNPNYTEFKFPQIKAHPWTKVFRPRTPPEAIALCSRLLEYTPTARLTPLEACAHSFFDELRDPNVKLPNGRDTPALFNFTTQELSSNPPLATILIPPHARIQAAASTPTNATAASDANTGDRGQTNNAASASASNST

These are yes or no findings as the source states them, for the method shown. Some binding calls cover weakened binding; strength is not graded here.

The target of this experiment is wild-type (WT) GSK-3β (human) (UniProt P49841). The experiment is described as follows: in vitro kinase assay with purified GSK-3β, with and without 100 µM L803-mts; competition with substrates.

Regarding GKEAPPAPPQSP (not spelled out in the text for L803-mts; the parent L803 carries S(p)) [L803-mts], the binding result is “binds”.
